In brackets after ≈: the same amount, converted by molar mass. Read-outs that look alike come from different tables or passages of the source.
Experiments:
Type in all cases: cell-based
FHs 74 Int cells = experiment: MTT cytotoxicity assay, FHs 74 Int; conditions: Homo sapiens, FHs74Int, carrageenans in degraded form, / = no IC50 found
HepG2 cells = experiment: MTT cytotoxicity assay, HepG2; conditions: Homo sapiens, carrageenans in degraded form, / = no IC50 found
Fa2N-4 cells = experiment: MTT cytotoxicity assay, Fa2N-4; conditions: Homo sapiens, carrageenans in degraded form

Work on `CC/C(=C(\c1ccccc1)c1ccc(OCCN(C)C)cc1)c1ccccc1` [TAM, Tamoxifen] yielded an IC50 (FHs 74 Int cells; 24 h, read-out: Inhibition concentrations causing 50% cell death (IC50), 24 h, FHS 74 Int) of 8.4 µg/mL (≈ 22.6 µM), an IC50 (FHs 74 Int cells; 48 h, read-out: Inhibition concentrations causing 50% cell death (IC50), 48 h, FHS 74 Int) of 7.2 µg/mL (≈ 19.4 µM) and an IC50 (FHs 74 Int cells; 72 h, read-out: Inhibition concentrations causing 50% cell death (IC50), 72 h, FHS 74 Int) of 6.8 µg/mL (≈ 18.3 µM). It also gave an IC50 (HepG2 cells; 24 h, read-out: Inhibition concentrations causing 50% cell death (IC50), 24 h, HepG2) of 9 µg/mL (≈ 24.2 µM), an IC50 (HepG2 cells; 72 h, read-out: Inhibition concentrations causing 50% cell death (IC50), 72 h, HepG2) of 6 µg/mL (≈ 16.1 µM) and an IC50 (Fa2N-4 cells; Fa2N-4, 24 h, 24 h, read-out: Inhibition concentrations causing 50% cell death (IC50), 24 h, fa2N4) of 2.2 µg/mL (≈ 5.92 µM). It also gave an IC50 (Fa2N-4 cells; Fa2N-4, 48 h, 48 h, read-out: Inhibition concentrations causing 50% cell death (IC50), 48 h, fa2N4) of 0.8 µg/mL (≈ 2.15 µM) and an IC50 (Fa2N-4 cells; Fa2N-4, 72 h, 72 h, read-out: Inhibition concentrations causing 50% cell death (IC50), 72 h, fa2N4) of 1.2 µg/mL (≈ 3.23 µM).

Source: paper PMC4320596, “Cytotoxicity effect of degraded and undegraded kappa and iota carrageenan in human intestine and liver cell lines” (BMC Complementary and Alternative Medicine, 2014)
